Source: ChEMBL document CHEMBL3988442, “University of Dundee, Small-Polar-MMV Screening Library” (2021).

Mtb glucose medium: 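Whole-cell growth test on Mycobacterium tuberculosis, read after 3 days in glucose-containing 7H9 medium; the read-out is not stated. Concentration: 50 µM. Higher reads as more growth inhibition (inferred: compounds with an IC50 in retests scored well above the rest). Size under these conditions: about 69,000 compounds, about 760 of them at 50% or above in at least one test.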
Mtb cholesterol medium: 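Phenotypic screen: M. tuberculosis growth, cholesterol and DPPC medium, 4 days; the read-out is not stated. Tested at 50 µM. The record gives no direction; compounds that gave an IC50 in retests scored well above the rest, so higher reads as more growth inhibition. About 69,000 compounds were tested under these conditions; 0.54% (about 370) showed 50% or more at least once.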

Each number is a percent effect as filed.
The record does not define 0% and 100%; most values in the screen are far below 50% and negative numbers occur (in some assays of this library far below -100).
The compounds are a random part of those screened.
Two or more numbers in one place are separate tests of the same structure; such repeats can differ widely.

O=c1[nH]c2ccccc2c2c1CCO2 read Mtb glucose medium: 18.42% & 9.404%; Mtb cholesterol medium: 13.63%.
CCS(=O)(=O)CCN1CCC(N(C)Cc2ncc(C)o2)C1 (stereo not shown) read Mtb glucose medium: 10.87%; Mtb cholesterol medium: 8.044%.
CC(C)Sc1ccc(C(C)NC(=O)Cn2cccnc2=O)cc1 (stereo not shown) read Mtb glucose medium: 10.64%; Mtb cholesterol medium: 6.322% & 0.8954%.
Cc1cc(C(=O)N2CCCC2c2nnc3n2CCCCC3)on1 (stereo not shown) read Mtb glucose medium: 8.259%; Mtb cholesterol medium: 13.03%.
NC(=O)C1CCN(C(=O)Cc2cnc(-c3c(Cl)cccc3Cl)s2)CC1 read Mtb glucose medium: -12.99%; Mtb cholesterol medium: -21.02%.
CCOC(C)C(=O)Nc1cc(S(=O)(=O)NC2CC2)ccc1F (stereo not shown) read Mtb glucose medium: -26.54% & 24.19%; Mtb cholesterol medium: -0.6752%.
[H][C@@]12CCC(=O)N(CCc3ccccc3)[C@]1([H])CCN(c1ncc(F)cn1)C2 read Mtb glucose medium: 19.28%; Mtb cholesterol medium: 9.524%.
Cc1[nH]nc2ncc(C(=O)N3CCN(CC(C)(C)O)CC3)cc12 read Mtb glucose medium: -4.521%; Mtb cholesterol medium: -9.822%.
CC(=O)N[C@@H]1CN(Cc2ccccc2-n2cccn2)C[C@H]1C(C)C read Mtb glucose medium: 39.66%; Mtb cholesterol medium: 6.123%.
Cc1nc(NC(=O)C(C)N2CCN(c3cnccn3)CC2)sc1C (stereo not shown) read Mtb glucose medium: 6.408%; Mtb cholesterol medium: 3.483%.
COC(=O)c1cccn1C1CCN(C(=O)c2ccc(C)cc2O)CC1 read Mtb glucose medium: 20.66%; Mtb cholesterol medium: 1.423%.
O=C(COc1cccc(F)c1)N1C[C@@H](O)[C@H](N2CCOCC2)C1 read Mtb glucose medium: 33.11%; Mtb cholesterol medium: 9.469%.
O=C(c1nc2c(s1)CCCN2CC1CC1)N1CCCC1 read Mtb glucose medium: -32.97% & 1.928%; Mtb cholesterol medium: 1.56%.
O=C(C[S+]([O-])Cc1ccc(F)cc1Cl)NC1CCCC1 (stereo not shown) read Mtb glucose medium: 8.117%; Mtb cholesterol medium: 9.029%.
COCc1nc(C(=O)N2CCN(Cc3ccsc3)CC2)cs1 read Mtb glucose medium: 17.71% & -2.618%; Mtb cholesterol medium: 15.18%.
Cc1nc(C)n(CC2CN(CCc3ccccn3)CCO2)n1 (stereo not shown) read Mtb glucose medium: 24.39%; Mtb cholesterol medium: -5.236% & -19.17%.
Nc1nc(C2CCN(C(=O)c3cnccn3)CC2)cs1 read Mtb glucose medium: -10.03%; Mtb cholesterol medium: -9.253%.
COCCS(=O)(=O)c1ncc(CN(C)CC(C)C)n1Cc1ccccc1 read Mtb glucose medium: -9.373%; Mtb cholesterol medium: 3.104%.
CCC(C)(C)NC(=O)C[S+]([O-])Cc1csc(C2CCCC2)n1 (stereo not shown) read Mtb glucose medium: 18.23%; Mtb cholesterol medium: 11.11%.
CNC(=O)c1cn[nH]c1C1CCN(Cc2cccc(C)c2OC)C1 (stereo not shown) read Mtb glucose medium: 25.1%; Mtb cholesterol medium: -5.847%.
CC(C)N(C)Cc1ncn2c1CN(S(=O)(=O)c1cccs1)CCC2.O=C(O)C(F)(F)F read Mtb glucose medium: -17.32% & -10.24%; Mtb cholesterol medium: -21.4%.
COCC(=O)N1CCC2(COCc3cnc(N4CCOCC4)nc32)C1 (stereo not shown) read Mtb glucose medium: -31.16%; Mtb cholesterol medium: 9.742% & -15.63%.
O=C(O)C(F)(F)F.O=C(O)C(F)(F)F.[H][C@@]12CCC(=O)N(c3cnn(C)c3)[C@]1([H])CCN2CCc1ccccc1 read Mtb glucose medium: -33.51%; Mtb cholesterol medium: -29.89%.
O=C(O)C1(Oc2ccc3c(c2)OCO3)CCN(C2CCOCC2)CC1 read Mtb glucose medium: 22.04%; Mtb cholesterol medium: 5.308%.
[H][C@@]12CCC(=O)N(CCc3c[nH]cn3)[C@]1([H])CCN(Cc1nccn1C)C2 read Mtb glucose medium: 23.47%; Mtb cholesterol medium: 8.148% & -8.398%.
CC(C)C(=O)NCCC(=O)N1CCN(c2ccccn2)CC1 read Mtb glucose medium: 18.19%; Mtb cholesterol medium: 6.863%.
CN(C)c1nc2c(c(N3CCCC3)n1)CCN(C(=O)c1ccc[nH]1)CC2 read Mtb glucose medium: 10.44%; Mtb cholesterol medium: -3.377% & 5.133%.

Once more, the final 3:

| Compound | Mtb glucose medium | Mtb cholesterol medium |
|---|---|---|
| `[H][C@@]12CCC(=O)N(CCc3c[nH]cn3)[C@]1([H])CCN(Cc1nccn1C)C2` | 23.47% | 8.148% & -8.398% |
| `CC(C)C(=O)NCCC(=O)N1CCN(c2ccccn2)CC1` | 18.19% | 6.863% |
| `CN(C)c1nc2c(c(N3CCCC3)n1)CCN(C(=O)c1ccc[nH]1)CC2` | 10.44% | -3.377% & 5.133% |